In PubChem BioAssay AID504847 (National Center for Advancing Translational Sciences (NCATS), 2011):
Screen size: about 400,000 compounds; about 3,700 (0.93%) were called active. This list was built around the results that the source calls inconclusive (neither active nor inactive); the mix of calls is not that of the screen. Calls come from the whole dose curve; as a rule, active = well fitted inhibition curve with a large enough effect; inconclusive = small, poorly fitted or top-dose-only effect, or another doubt; inactive = no such curve, though single readings can be large or run the other way. A potency beside an inconclusive call is a rough fit, not a confirmed value. The source holds several records for some structures; these can differ, active in one and inactive in another.

Amino acid sequences for entries named in this document (tags omitted). A change or cut given only in a name is not applied to a line headed by its entry.
UniProt P11473: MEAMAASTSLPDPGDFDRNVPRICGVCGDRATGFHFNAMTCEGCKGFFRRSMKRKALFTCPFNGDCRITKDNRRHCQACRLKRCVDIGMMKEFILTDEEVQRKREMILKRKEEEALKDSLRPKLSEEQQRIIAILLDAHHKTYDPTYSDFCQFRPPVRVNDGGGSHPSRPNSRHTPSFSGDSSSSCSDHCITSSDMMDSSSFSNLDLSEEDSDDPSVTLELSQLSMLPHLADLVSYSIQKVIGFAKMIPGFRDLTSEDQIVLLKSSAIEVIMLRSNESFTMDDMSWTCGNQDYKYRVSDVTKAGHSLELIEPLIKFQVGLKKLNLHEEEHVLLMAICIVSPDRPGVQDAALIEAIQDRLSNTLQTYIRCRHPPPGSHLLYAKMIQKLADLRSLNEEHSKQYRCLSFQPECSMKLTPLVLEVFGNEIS

The compounds below were run against Vitamin D3 receptor (Homo sapiens) (UniProt P11473) (assay: Inhibitors of the vitamin D receptor (VDR): qHTS). Conditions: VDR-SRC2-3 peptide fluorescence polarization, 2 h; max response, negative = inhibition: active compounds read low.
Summary of the method: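 FP read-out; VDR + SRC2-3 coactivator peptide; 23 nl compound by pintool; 2 h RT incubation; reagents held at 4 deg C, protected from light.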
% is set by controls: 0 for no effect and ±100 for the full control effect; potency is the fitted concentration of half-maximal effect.

Max response, negative = inhibition, inactive:
Cc1cccc(-n2ncc3c(NCc4cccnc4)ncnc32)c1 -14.8%
CCCCCCCCCCCCCCCCSCC(COC)COP(=O)([O-])OCC[N+](C)(C)C (centres undefined) 0%
CNCCCCc1cnc(C)c2[nH]c3ccccc3c12 -2.33%
Cc1ccc(S(=O)(=O)NCc2cccnc2)cc1C(=O)NC1CCCCC1 -15.5%
CC1CCN(S(=O)(=O)c2ccc3c(c2)N(CC(=O)NC(C)(C)C)C(=O)CS3)CC1 -1.64%
COc1ccc(C(=O)N2CCN(Cc3ccccc3)CC2)cc1[N+](=O)[O-] -18.4%
Cc1ccc(-c2nnc(Nc3ccc(O)cc3)c3ccccc23)cc1S(=O)(=O)NC(C)(C)CO 13.8%
CC(=O)NS(=O)(=O)c1ccc(NS(=O)(=O)c2ccccc2[N+](=O)[O-])cc1 12%
O=C(O)CCc1ccc(-c2ccccc2)n1-c1cccc(C(=O)O)c1 3.21%
CC1=NN(C(N)=S)C(=O)C1N=Nc1ccccc1C(=O)O (centres undefined) 6.51%
COc1ccccc1N1CCN(/N=C/c2ccc(OC)c(OC)c2OC)CC1 3.72%
CCOC(=O)c1cc(S(=O)(=O)N(C)c2ccccc2)[nH]n1 6.1%
COc1ccc(CNC(=O)COC(=O)c2cc(-c3ccc(Cl)s3)nc3ccccc23)cc1 -8.93%
Cc1cc(C)n(CC(=O)Nc2cccc(C(F)(F)F)c2)n1 -3.79%
CCNc1ncc2nc(-c3cc(F)cc(F)c3)c(=O)n(C3CC3)c2n1 -7.42%
CC(=O)N1CCc2c(sc3c2c(=O)n(-c2cc(Cl)ccc2C)c(=O)n3C)C1 12.6%

Entries from the list above that have a halogen (4):
Max response, negative = inhibition, inactive:
COc1ccc(CNC(=O)COC(=O)c2cc(-c3ccc(Cl)s3)nc3ccccc23)cc1 -8.93%
Cc1cc(C)n(CC(=O)Nc2cccc(C(F)(F)F)c2)n1 -3.79%
CCNc1ncc2nc(-c3cc(F)cc(F)c3)c(=O)n(C3CC3)c2n1 -7.42%
CC(=O)N1CCc2c(sc3c2c(=O)n(-c2cc(Cl)ccc2C)c(=O)n3C)C1 12.6%

Next part.

Potency, active:
CN(Cc1ccco1)c1ncnc2ccc(-c3ccoc3)cc12 50.1 µM
CC(=O)N(c1ccc2oc(=O)sc2c1)S(=O)(=O)c1cccs1 89.1 µM
CN1CCN(c2ncc3nc(-c4cc(F)cc(F)c4)c(=O)n(CCC#N)c3n2)CC1 22.4 µM

Potency, inconclusive:
CC(=O)N1CCC2(CCCN(Cc3ccccc3)C2)CC1 35.5 µM [inhibitor, partial curve, poor fit]
CCOc1ccc(CCNC(=O)CSC(=S)N2CCCC2)cc1OCC 89.1 µM [inhibitor, single point]
Cc1sc(N)c(C(=O)c2ccccc2)c1C 39.8 µM [inhibitor, single point]
O=C(CC(n1cncn1)C(Cl)(Cl)Cl)c1ccc([N+](=O)[O-])cc1 (centres undefined) 100 µM [inhibitor, single point]
CN1C(=S)N(c2cccnc2)C(=O)/C1=C\c1ccc(C(C)(C)C)cc1 56.2 µM [inhibitor, partial curve, poor fit]
O=C(Cc1ccccc1)Nc1sc2c(c1C(=O)Nc1ccccc1Cl)CCCC2 89.1 µM [inhibitor, single point]
CN(C)c1ccc(-c2cncnc2Nc2ccccc2)cc1 44.7 µM [inhibitor, partial curve]
Cc1noc(C)c1-c1ccc2ncnc(N3CCN(C)CC3)c2c1 79.4 µM [inhibitor, partial curve, poor fit]
O=C(COC(=O)C1(c2ccccc2)CCCC1)N1CCNC1=O 100 µM [inhibitor, partial curve, poor fit]
FC(F)(F)c1cc(NC2CCCCC2)ccn1 56.2 µM [inhibitor, partial curve, poor fit]
C=C1CC2(OC1=O)c1ccccc1CCc1ccccc12 50.1 µM [inhibitor, partial curve, poor fit]
NNC(=O)c1cccc(COc2ccccc2Br)c1 70.8 µM [inhibitor, partial curve, poor fit]
COc1oc(C(=O)NC2CCCCC2)c(-c2ccc(Cl)cc2)c1S(=O)(=O)c1ccccc1 79.4 µM [inhibitor, single point]
Cc1cccc(C)c1NC(=S)/N=C/N(C)C 56.2 µM [inhibitor, partial curve, poor fit]
CCCOCC1CC(CCc2nc(=S)[nH][nH]2)C(=O)O1 (centres undefined) 89.1 µM [inhibitor, single point]
Cc1ccc(/C=C2\CCC3=C2OC(N)=C(C#N)C3c2ccc(C)cc2)cc1 (centres undefined) 89.1 µM [inhibitor, single point]
OC1C=C2CCN3Cc4cc5c(cc4C(C1O)C23)OCO5 (centres undefined) 56.2 µM [inhibitor, partial curve, poor fit]
CCOc1ccc(/C=C/C(=O)c2c(O)cc(C)oc2=O)cc1 56.2 µM [inhibitor, partial curve, poor fit]
Cc1nc(N)sc1-c1csc(Nc2ccccc2)n1 79.4 µM [inhibitor, partial curve, poor fit]
CCN(CC(=O)NC(C)C)C(=O)c1ccc(S(=O)(=O)N(C)c2ccccc2OC)cc1 3.16 µM [inhibitor, single point]
CC1(C)CC(=O)C(C(c2ccccc2F)C2C(=O)CC(C)(C)CC2=O)C(=O)C1 56.2 µM [inhibitor, partial curve, poor fit]
COc1ccc(C(=O)CCS(=O)(=O)c2ccc(C)cc2)cc1OC 22.4 µM [inhibitor, partial curve, poor fit]
COc1ccc(-c2cc(C(=O)N3CCN(Cc4ccc5c(c4)OCO5)CC3)on2)cc1OC 31.6 µM [inhibitor, partial curve, poor fit]
Cc1ccc(C)c(NC(=O)COC(=O)c2nc(Cl)ccc2Cl)c1 89.1 µM [inhibitor, partial curve, poor fit]
CCOc1ccc(C2C(C(=O)OC)=CN(C(C)c3ccccc3)C=C2C(=O)OC)cc1 (centres undefined) 89.1 µM [inhibitor, partial curve, poor fit]
